Values as published with doi:10.1371/journal.pone.0140310, rounded.

Drugs:
GW441756, 2 µM: Cn1cc(/C=C2\C(=O)Nc3cccnc32)c2ccccc21
BI-78D3, 1 µM: O=c1[nH]nc(Sc2ncc([N+](=O)[O-])s2)n1-c1ccc2c(c1)OCCO2
nilotinib, 1 µM: Cc1cn(-c2cc(NC(=O)c3ccc(C)c(Nc4nccc(-c5cccnc5)n4)c3)cc(C(F)(F)F)c2)cn1
JZL184, 5 µM: O=C(Oc1ccc([N+](=O)[O-])cc1)N1CCC(C(O)(c2ccc3c(c2)OCO3)c2ccc3c(c2)OCO3)CC1

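Human melanoma cell lines in 1,536-well plates were treated with one drug for 72 h, then fixed, stained and imaged. Values are the number of DAPI-stained nuclei as a percentage of the DMSO control: 100 is no effect, lower means fewer cells. Every drug was used at one fixed concentration, the higher of two screened. These are primary screening values without error estimates.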
This is part of the screen, not chosen by result.
An entry leaves out what has no value listed here.
A dash means that no value is listed here.

Cell line | BI-78D3 | GW441756 | nilotinib | JZL184
A2058 | 90.2 | 97.3 | 94.2 | 107
WM3619 | 64.5 | 95.5 | 95.6 | 103
WM3526 | 101 | 107 | 77.7 | 93.5
G-361 | 85.2 | 110 | 108 | 102
MeWo | 86.5 | 104 | 114 | 109
A101D | 89.9 | 83.8 | 103 | 73.3
LOX IMVI | 85.1 | 105 | 146 | 127
COLO 792 | 88.2 | 95.5 | 108 | 121
A375 | 104 | 137 | 101 | 92.5
501mel | - | 120 | - | 94.6
IST-MEL1 | 84.0 | 115 | 96.7 | 92.8
SK-MEL-28 | 85.8 | 99.9 | 95.0 | 98.1
WM1745 | 96.0 | - | 97.1 | -
RPMI-7951 | 77.8 | 73.6 | 98.8 | 102
SK-MEL-5 | 116 | 81.8 | 65.4 | 120

The last 2 entries again:

{"cell line": "RPMI-7951", "BI-78D3": 77.8, "GW441756": 73.6, "nilotinib": 98.8, "JZL184": 102}
{"cell line": "SK-MEL-5", "BI-78D3": 116, "GW441756": 81.8, "nilotinib": 65.4, "JZL184": 120}